Data from PubChem BioAssay AID2685 (National Center for Advancing Translational Sciences (NCATS), 2010).
The campaign covered roughly 320,000 compounds. About 2,100 (0.66%) were called active. The shares of active, inactive and inconclusive entries below differ from those in the screen. Calls follow the shape of the dose curve; as a rule, active = well fitted inhibition curve with a large enough effect in the signal ratio, with a control signal flat (not every such curve was filed as active); inconclusive = small, poorly fitted or top-dose-only effect, or effect the other way, or a change in a side signal; inactive = flat fitted curve, though single readings scatter; the % refers to the signal ratio. A potency beside an inconclusive call is a rough fit, not a confirmed value.

test: qHTS Assay for Lipid Storage Modulators in Drosophila S3 Cells; conditions: BODIPY lipid droplet fluorescence, 18-24 h, cells fed with added oleic acid; lipid storage change, negative = inhibition: at 46.1 µM (top of the series) unless noted
How it was run: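 Laser-scanning cytometry quantifies lipid droplet accumulation (500–530 nm total intensity; droplet/cell object ratio) in oleic acid-fed (400 uM added) Drosophila S3 cells treated with a concentration series. 20 uM Triacsin C defined 100% inhibition.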
% is scaled to controls: 0 for no effect and ±100 for the full control effect; potency is read from the fitted curve at half-maximal effect.

| SMILES | Potency | lipid storage change, negative = inhibition | outcome |
| --- | --- | --- | --- |
| COC(=O)c1ccc(NC(=O)C2CCCN2C(=O)Nc2cccc(C(C)=O)c2)cc1 (stereo unspecified) | inconclusive: 20.6 µM [activator, partial curve] | – | – |
| COc1ccc(/C=N/NC(=O)c2ccccc2OC)cc1COc1ccc(C)cc1 | – | inconclusive: 16.7% | – |
| COCCCNc1nc2ccccc2nc1NS(=O)(=O)c1ccc(F)cc1 | – | inconclusive: 11.2% | – |
| O=S(=O)(c1ccc(Br)s1)N1CCN(c2ccnc3cc(Cl)ccc23)CC1 | inconclusive: 29.1 µM [falling, single point] | – | – |
| O=C(N/N=C/c1ccc(F)cc1)c1ccc(-n2cnnn2)cc1 | – | inconclusive | – |
| COC(=O)c1c(NC(=O)C2Cc3ccccc3C(=O)O2)sc2c1CCCC2 (stereo unspecified) | – | inconclusive: 30% | – |
| CCCNC(=O)NNC(=O)c1ccc(F)cc1 | – | inconclusive: 9.45% | – |
| CN(C)c1ccc(C(C(=O)NCC2CCCO2)N(Cc2ccco2)C(=O)c2snc(C(N)=O)c2N)cc1 (stereo unspecified) | inconclusive: 0.092 µM [activator, full curve] | – | – |
| Cn1c(=O)c2c(ncn2CC(=O)N2CCN(S(=O)(=O)c3ccccc3)CC2)n(C)c1=O | – | inconclusive: -8.17% | – |
| c1ccc2c(c1)nc1n2CCN1CCN1CCCC1 | inconclusive: 18.4 µM [activator, single point] | – | – |
| COC(=O)[C@@]12CCCN1[C@H](c1ccc(-c3ccc(OC)cc3)cc1)[C@@H]1C(=O)N(C)C(=O)[C@@H]12 | – | inconclusive: -13.7% | – |
| Cc1nnc(SCC(=O)NC(C)(C)C)n1NCc1c(F)cccc1Cl | – | inconclusive: 7.25% | – |
| O=C(NCc1cccs1)c1ccc(CS(=O)(=O)c2ccc(Cl)cc2)o1 | inconclusive: 0.58 µM [rising, partial curve] | – | – |
| O=C(CC(c1ccccc1)c1cc(Br)ccc1O)N1CCCC1 (stereo unspecified) | – | inconclusive: -42.7% [cytotoxic] [at 0.00295 µM] | – |
| CCS(=O)(=O)n1nc(-c2cccnc2)nc1NCc1ccc(F)cc1 | – | inconclusive: 13.6% | – |
| CCOC(=O)C1=C(O)/C(=C/c2ccc(OCC(=O)O)c(OCC)c2)SC1=Nc1ccc(C)cc1 | – | inconclusive: 4.91% | – |
| COc1cccc(=O)c2c(C)n(C)c(C)c12 | – | inconclusive: 63.5% | – |
| O=C(NCc1ccccn1)C(=O)NCC1OCCN1S(=O)(=O)c1ccc([N+](=O)[O-])cc1 (stereo unspecified) | – | inconclusive: 3.9% | – |
| O=C(NNC(=O)c1ccc2c(=O)n3c(nc2c1)CCC3)c1ccc(Cl)cc1 | – | inconclusive: 67.7% | – |
| O=[N+]([O-])c1ccc(O)c(/C=N/n2c(-c3ccccc3)n[nH]c2=S)c1 | inconclusive: 6.51 µM [activator, single point] | – | – |
| COc1ccc(N2CCN(C(=O)CSc3nnc(-c4cccnc4)n3-c3ccccc3)CC2)cc1 | – | inconclusive: 8.97% | – |
| O=C(CN(CC1CCCO1)C(=O)CNS(=O)(=O)c1ccc(F)cc1)NCc1ccc(F)cc1 (stereo unspecified) | – | inconclusive: 54.7% | – |
| O=C(COC(=O)C12CC3CC(CC(C3)C1)C2)Nc1ccc2[nH]c(=O)[nH]c2c1 | – | – | inactive [at 46.1 µM] |
| Cc1ccc(S(=O)(=O)NCC(=O)NCC(=O)NCCc2ccccc2F)cc1C | – | inconclusive: -11.5% | – |
| O=C(Cc1ccc(Br)cc1)N/N=C/c1ccc(-c2cccc(C(=O)O)c2)o1 | – | inconclusive: -3.26% | – |
| COc1ccc(/C=C/C2=NC(=C\N(C)C)/C(=O)O2)cc1 | – | inconclusive: -29.4% | – |

Reprinted at random: 2 entries already listed.

| SMILES | Potency | lipid storage change, negative = inhibition | outcome |
| --- | --- | --- | --- |
| Cn1c(=O)c2c(ncn2CC(=O)N2CCN(S(=O)(=O)c3ccccc3)CC2)n(C)c1=O | – | inconclusive: -8.17% | – |
| COC(=O)c1ccc(NC(=O)C2CCCN2C(=O)Nc2cccc(C(C)=O)c2)cc1 (stereo unspecified) | inconclusive: 20.6 µM [activator, partial curve] | – | – |

(next part)

| SMILES | Potency | lipid storage change, negative = inhibition | outcome |
| --- | --- | --- | --- |
| NS(=O)(=O)c1ccc(CNC(=O)c2cc(-c3cccs3)nc3ccccc23)cc1 | – | inconclusive: -45.8% | – |
| CO/N=C(/CNC(=O)c1ccc(Cl)cc1Cl)c1ccc(Cl)cc1 | – | inconclusive: -8.86% | – |
| Cc1ccccc1OCC(=O)Nc1ccc(C(=O)Nc2ccccc2C(=O)O)cc1 | – | inconclusive: 22.5% | – |
| CCCCN(C(=O)CCSc1ccc(F)cc1)c1c(N)n(Cc2ccccc2)c(=O)[nH]c1=O | – | inconclusive: -19.9% | – |
| Cc1cccc(S(=O)(=O)NCCc2cn3ccccc3n2)c1 | – | inconclusive: 8.89% | – |
| O=C(CCN1CCN(c2ccc(Cl)cc2)CC1)Nc1ccccc1F | – | inconclusive: -10.1% | – |
| CCOc1ccc2c(c1)c1nnc(SCC3CCCO3)nc1n2C (stereo unspecified) | – | inconclusive: 64.2% | – |
| COc1ccc(CCC(=O)Nc2cc3c4c(c2)CC(=O)N4CCC3)cc1 | – | inconclusive: 62.5% | – |
| Cc1cc(OCC(=O)Nn2cnnc2)ccc1Br | – | inconclusive: -41.2% | – |
| O=C(O)CN(c1ccc2c(c1)OCCO2)S(=O)(=O)c1ccccc1 | – | inconclusive: -9.32% | – |
| CCOC(=O)c1sc(NC(=O)C2CCC2)cc1C | – | inconclusive: -20.2% | – |
| Cc1cc(Nc2ccccc2)nc(N)n1 | – | inconclusive: 1.7% | – |
| N#Cc1cc([N+](=O)[O-])ccc1Oc1cccc(/C=N/NC(=O)c2ccc(Cl)cc2)c1 | – | inconclusive: 187% | – |
| CN(CC(=O)N1CC=C(c2ccccc2)CC1)S(=O)(=O)c1ccc2c(c1)c(=O)n(C)c(=O)n2C | – | inconclusive: 3.67% | – |
| Cc1cccc(N2CCN(C(=O)c3cccc(NC4=NC5CS(=O)(=O)CC5S4)c3)CC2)c1C (stereo unspecified) | – | inconclusive: -8.82% | – |
| O=C(COc1ccccc1Cl)N1CCc2ccccc21 | – | inconclusive: 28.7% | – |
| COc1cccc(C(=O)NNc2c3ccccc3nc3ccccc23)c1 | – | inconclusive: -9.8% | – |
| CCOc1ccc(NS(=O)(=O)c2ccc(C(=O)N(C)CCc3ccc(OC)c(OC)c3)cc2)cc1 | – | inconclusive: -70.1% | – |
| Cc1[nH]n(-c2ccccc2)c(=O)c1C=NCCc1ccccc1 | – | inconclusive: -9.32% | – |
| CCN1CCCC1CNC(=O)Cn1cccc1C(=O)c1ccccc1 (stereo unspecified) | – | inconclusive: -38.2% | – |
| COc1ccc(C(=O)N[C@H](C(=O)OCn2nnc3ccccc3c2=O)C(C)C)cc1 | – | inconclusive: 14% | – |
| CC(C)(C)OC(=O)Nc1ccc([C@@H](NC(=O)OC(C)(C)C)C(=O)OC(C)(C)C)cc1 | – | inconclusive: 0.619% | – |
| CCOC(=O)C1=C(C)N=c2s/c(=C\C(=O)OC)c(=O)n2C1c1ccc(OC)cc1 (stereo unspecified) | – | inconclusive: 19.7% | – |
| O=C(O)C(Cc1c[nH]c2ccccc12)NS(=O)(=O)c1ccc(Br)cc1 (stereo unspecified) | – | inconclusive: -14.3% | – |
| CCCCOc1ccc(C(=O)N/C(=C\c2ccc([N+](=O)[O-])cc2)C(=O)OCc2ccco2)cc1 | inconclusive: 0.184 µM [falling, full curve, poor fit] | – | – |
| Cc1[nH]c2c(Br)cccc2c1[C@H]1[C@@H](CC#N)C1(C)C | inconclusive: 6.51 µM [rising, single point] | – | – |

Shown in CSV form: entries from further up
SMILES,Potency,"lipid storage change, negative = inhibition",outcome
O=C(N/N=C/c1ccc(F)cc1)c1ccc(-n2cnnn2)cc1,–,inconclusive,–
CCOC(=O)C1=C(O)/C(=C/c2ccc(OCC(=O)O)c(OCC)c2)SC1=Nc1ccc(C)cc1,–,inconclusive: 4.91%,–
COc1ccc(CCC(=O)Nc2cc3c4c(c2)CC(=O)N4CCC3)cc1,–,inconclusive: 62.5%,–
COc1ccc(C(=O)N[C@H](C(=O)OCn2nnc3ccccc3c2=O)C(C)C)cc1,–,inconclusive: 14%,–
O=C(O)C(Cc1c[nH]c2ccccc12)NS(=O)(=O)c1ccc(Br)cc1 (stereo unspecified),–,inconclusive: -14.3%,–

(continued)

| SMILES | Potency | lipid storage change, negative = inhibition | outcome |
| --- | --- | --- | --- |
| Cc1cc(NC(=O)CCC(=O)N(CC(=O)NC2CCCC2)c2ccc(F)c(Cl)c2)no1 | inconclusive: 0.58 µM [activator, single point] | – | – |
| CCCC(=O)Nc1nc2ccc(NC(=O)c3c(F)c(F)c(OC)c(F)c3F)cc2s1 | – | inconclusive: -25.8% | – |
| CNC(=S)NNC(=O)c1cccc(N(C)C)c1 | – | inconclusive: 6.56% | – |
| O=C1NC(=O)/C(=C\c2ccccc2OCc2cccc([N+](=O)[O-])c2)N1 | – | inconclusive: 5.28% | – |
| Cc1nnc(SCC(=O)NC(=O)NC(C)(C)C)s1 | – | inconclusive: 85.4% | – |
| O=[N+]([O-])c1ccccc1/C=N/N1CCN(c2ccc(Cl)cc2)CC1 | – | inconclusive: 13.4% | – |
| O=C(CCNS(=O)(=O)c1ccccc1F)N1CCN(Cc2ccccc2)CC1 | – | – | inactive [at 46.1 µM] |
| COc1ccc(C(=O)/C=C/C(=O)N(Cc2ccc(F)cc2)C(C(=O)NC2CCCCC2)c2ccncc2)c(O)c1 (stereo unspecified) | – | inconclusive: 21.6% | – |
| CCOC(=O)c1c(C)[nH]c(C)c1C(=O)COC(=O)/C=C/c1cccc(C(F)(F)F)c1 | – | inconclusive: 18.4% | – |
| Cc1c(Br)c(C(F)(F)F)nn1CC(=O)N(C)C1CCCCC1 | – | inconclusive: 47.2% | – |
| Cc1sc2ncnc(NCC(C)(C)N3CCOCC3)c2c1C | inconclusive: 6.51 µM [activator, single point] | – | – |
| Cc1cc(Oc2cc(NN3CCCCC3)c([N+](=O)[O-])cc2[N+](=O)[O-])c(C(=O)c2ccccc2)cc1Cl | inconclusive: 0.0146 µM [falling, full curve, poor fit] | – | – |
| CCCCn1c(SCc2cccc([N+](=O)[O-])c2)nc2ccsc2c1=O | – | inconclusive: 21.9% | – |
| CCN(CC)CCCNC(=O)c1c(O)c2cc(F)cc3c2n(c1=O)C(C)CC3 (stereo unspecified) | inconclusive: 29.1 µM [rising, single point] | – | – |
| S=c1sc(SCCOc2ccccc2)nn1-c1ccccc1 | – | inconclusive: 28.4% | – |
| O=C(O)c1cc(NC(=O)c2ccc3c(c2)C(=O)N(Cc2ccccc2)C3=O)cc(C(=O)O)c1 | inconclusive: 29.1 µM [activator, single point] | – | – |
| O=C(Nc1ccccc1C(=O)O)c1cccc(S(=O)(=O)Nc2ccc(Br)cc2)c1 | – | inconclusive: 31.5% | – |
| Cc1ccc(C(NC(=O)C2CCCCC2)c2c(O)ccc3ccccc23)cc1 (stereo unspecified) | active: 13 µM | – | – |
| CCOc1ncccc1C(=O)OCc1ccc(C(=O)OC)cc1 | – | inconclusive: 12.6% | – |
| CC(C)Cn1c(SCC(=O)NC(=O)NC2CCCC2)nc2ccccc21 | – | inconclusive: -5.34% | – |
| COc1ccc(F)cc1S(=O)(=O)Nc1ccc(C)cc1 | inconclusive: 1.03 µM [activator, full curve, poor fit] | – | – |
| CCC1CN(C(=O)NCc2cccc(OC)c2)c2cc(Cl)ccc2O1 (stereo unspecified) | – | inconclusive: 23.5% | – |
| CN1[C@@H](CC(=O)c2ccccc2)CCC[C@H]1C[C@H](O)c1ccccc1 | – | inactive: 4.29% | – |
| CCC(c1nnnn1Cc1ccco1)N(Cc1cc2cc(C)cc(C)c2[nH]c1=O)CC1CCCO1 (stereo unspecified) | inconclusive: 1.16 µM [activator, full curve] | – | – |
